For at least one entry, the source does not settle the construct or the ends of the probe. Protein sequences can lack the tags named with them.
Legend:
ELF5 Δ33 del1-33 [1] = target: T1, ELF5 Δ33 del1-33 (UniProt Q9UKW6); test: EMSA; conditions: 200 ng protein in 20 ul; 10 mM EDTA, 50 mM DTT, 100 mM Tris pH 7.5, 1 M NaCl, 1 mg/ml BSA (probably stock concentrations); recombinant protein; residues 34-265; protein details: His6 (pQE-30); label: 32P 5' end
T1 sequence (looked up): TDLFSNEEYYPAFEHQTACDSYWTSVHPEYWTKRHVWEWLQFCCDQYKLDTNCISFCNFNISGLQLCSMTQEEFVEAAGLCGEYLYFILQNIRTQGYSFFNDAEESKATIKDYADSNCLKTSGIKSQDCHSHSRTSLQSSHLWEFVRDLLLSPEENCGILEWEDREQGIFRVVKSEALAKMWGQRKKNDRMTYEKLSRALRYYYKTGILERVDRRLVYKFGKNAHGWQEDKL

ELF5 Δ33 del1-33 [2] = target: T1, ELF5 Δ33 del1-33; test: competition with a labelled probe; conditions: 100-fold excess unlabelled, against labelled N1; recombinant protein; residues 34-265; protein details: His6 (pQE-30); label: 32P 5' end

## CCACCAGGAAAGAAAACACCG (double strand) [MUC4 -216 Ets wt]
ELF5 Δ33 del1-33 [1]
  binding result: binds
ELF5 Δ33 del1-33 [2]
  binding result: binds
